Measured values published in article PMC12216130, “Structural basis for the interaction between the bacterial cell division proteins FtsZ and ZapA” (Nature Communications, 2025).
These are yes or no findings as the source states them, for the method shown. Some results given as binding are weak or reduced against the parent protein; the word gives no strength.

Protein sequences, listed by entry. Tags and fused reporters are not part of them.
UniProt W9BCK7: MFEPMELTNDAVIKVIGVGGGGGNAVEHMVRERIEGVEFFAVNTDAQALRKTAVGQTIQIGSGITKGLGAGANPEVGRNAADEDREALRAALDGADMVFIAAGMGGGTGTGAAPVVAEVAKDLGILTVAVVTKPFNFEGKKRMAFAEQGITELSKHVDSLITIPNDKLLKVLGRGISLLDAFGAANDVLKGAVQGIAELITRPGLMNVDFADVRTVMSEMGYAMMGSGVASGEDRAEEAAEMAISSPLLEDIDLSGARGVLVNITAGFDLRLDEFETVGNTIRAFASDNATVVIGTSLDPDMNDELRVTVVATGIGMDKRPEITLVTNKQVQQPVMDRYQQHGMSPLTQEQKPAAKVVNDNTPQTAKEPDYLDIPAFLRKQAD

Columns and labels:
[1] = target: K. pneumoniae FtsZ (K. pneumoniae) (UniProt W9BCK7); assay: negative staining electron microscopy; purified ZapA-FtsZ complex at 1.0 mg/ml on carbon grids, 2% uranyl acetate; both purified
[2] = target: K. pneumoniae ZapA (K. pneumoniae) (UniProt A6TDS2); assay: crystal structure; KpZapA alone, 10 mg/ml, hanging drop, 293 K, 0.2 M sodium acetate, 0.1 M sodium citrate pH 5.5, 10% PEG4000; 1.8 A; both purified
[3] = target: K. pneumoniae FtsZ (K. pneumoniae) (UniProt W9BCK7); assay: high-speed atomic force microscopy (HS-AFM); pre-mixing method: 14 uM KpFtsZ, 36 uM KpZapA, 1 mM GTP in 20 mM HEPES-NaOH pH 7.5, 5 mM MgCl2, 100 mM KCl, mixed, then adsorbed onto mica; room temperature; both purified
[4] = target: K. pneumoniae FtsZ (K. pneumoniae) (UniProt W9BCK7); assay: cryo-EM structure; 7.4 uM KpFtsZ, 14.9 uM KpZapA (2x molar excess), 0.6 mM GMPCPP, 17 mM HEPES pH 7.5, 8.6 mM NaCl, 60 mM KCl, 3 mM MgCl2, on ice 15 min; helical refinement to 2.73 A; same data re-analysed with the focus on ZapA (3.89 and 4.27 A maps, 2D classes); both purified

Measured: binding

B1: K. pneumoniae ZapA (natural protein)
chain: MSAQPVDLQIFGRSLRVNCPPEQRDALNQAAEDLNQRLQDLKERTRVTNTEQLVFIAALNISYELTQEKAKTRDYASSMEQRIRMLQQTIEQALLEQGRISE
notes: ZapA of Klebsiella pneumoniae; synthetic gene codon-optimised for E. coli in pColdI-TEV; Tetramer in the structures; also called KpZapA; source: E. coli, purified (HisTrap, TEV cleavage, second HisTrap, Superdex200 SEC); not shown: His6, N-terminal, cleaved
binds: all assays above
